Test results published in the supplement of paper PMC10849652.
Some of the results follow.

Chains of the proteins cited; added tags and fusions are not shown. Lines headed by an entry give the natural chain unless they say otherwise; changes in a name come on top.
UniProt Q9UMX5: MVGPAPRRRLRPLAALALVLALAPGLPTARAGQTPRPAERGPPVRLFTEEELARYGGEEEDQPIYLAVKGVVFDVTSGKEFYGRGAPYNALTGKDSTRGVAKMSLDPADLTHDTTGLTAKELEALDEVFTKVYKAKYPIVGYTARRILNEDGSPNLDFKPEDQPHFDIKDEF
UniProt O95169, whole entry, looked up: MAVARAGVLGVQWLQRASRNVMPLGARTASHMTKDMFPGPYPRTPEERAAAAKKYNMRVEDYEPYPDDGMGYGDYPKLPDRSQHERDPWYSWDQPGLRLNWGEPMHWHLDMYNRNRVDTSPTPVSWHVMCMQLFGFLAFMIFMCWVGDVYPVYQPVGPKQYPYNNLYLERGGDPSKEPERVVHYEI
UniProt Q9P0J0, whole entry, looked up: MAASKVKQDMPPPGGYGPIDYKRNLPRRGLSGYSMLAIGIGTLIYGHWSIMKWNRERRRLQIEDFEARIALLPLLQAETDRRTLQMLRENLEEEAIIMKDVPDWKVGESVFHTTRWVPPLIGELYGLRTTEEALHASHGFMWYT
UniProt Q9Y2I1: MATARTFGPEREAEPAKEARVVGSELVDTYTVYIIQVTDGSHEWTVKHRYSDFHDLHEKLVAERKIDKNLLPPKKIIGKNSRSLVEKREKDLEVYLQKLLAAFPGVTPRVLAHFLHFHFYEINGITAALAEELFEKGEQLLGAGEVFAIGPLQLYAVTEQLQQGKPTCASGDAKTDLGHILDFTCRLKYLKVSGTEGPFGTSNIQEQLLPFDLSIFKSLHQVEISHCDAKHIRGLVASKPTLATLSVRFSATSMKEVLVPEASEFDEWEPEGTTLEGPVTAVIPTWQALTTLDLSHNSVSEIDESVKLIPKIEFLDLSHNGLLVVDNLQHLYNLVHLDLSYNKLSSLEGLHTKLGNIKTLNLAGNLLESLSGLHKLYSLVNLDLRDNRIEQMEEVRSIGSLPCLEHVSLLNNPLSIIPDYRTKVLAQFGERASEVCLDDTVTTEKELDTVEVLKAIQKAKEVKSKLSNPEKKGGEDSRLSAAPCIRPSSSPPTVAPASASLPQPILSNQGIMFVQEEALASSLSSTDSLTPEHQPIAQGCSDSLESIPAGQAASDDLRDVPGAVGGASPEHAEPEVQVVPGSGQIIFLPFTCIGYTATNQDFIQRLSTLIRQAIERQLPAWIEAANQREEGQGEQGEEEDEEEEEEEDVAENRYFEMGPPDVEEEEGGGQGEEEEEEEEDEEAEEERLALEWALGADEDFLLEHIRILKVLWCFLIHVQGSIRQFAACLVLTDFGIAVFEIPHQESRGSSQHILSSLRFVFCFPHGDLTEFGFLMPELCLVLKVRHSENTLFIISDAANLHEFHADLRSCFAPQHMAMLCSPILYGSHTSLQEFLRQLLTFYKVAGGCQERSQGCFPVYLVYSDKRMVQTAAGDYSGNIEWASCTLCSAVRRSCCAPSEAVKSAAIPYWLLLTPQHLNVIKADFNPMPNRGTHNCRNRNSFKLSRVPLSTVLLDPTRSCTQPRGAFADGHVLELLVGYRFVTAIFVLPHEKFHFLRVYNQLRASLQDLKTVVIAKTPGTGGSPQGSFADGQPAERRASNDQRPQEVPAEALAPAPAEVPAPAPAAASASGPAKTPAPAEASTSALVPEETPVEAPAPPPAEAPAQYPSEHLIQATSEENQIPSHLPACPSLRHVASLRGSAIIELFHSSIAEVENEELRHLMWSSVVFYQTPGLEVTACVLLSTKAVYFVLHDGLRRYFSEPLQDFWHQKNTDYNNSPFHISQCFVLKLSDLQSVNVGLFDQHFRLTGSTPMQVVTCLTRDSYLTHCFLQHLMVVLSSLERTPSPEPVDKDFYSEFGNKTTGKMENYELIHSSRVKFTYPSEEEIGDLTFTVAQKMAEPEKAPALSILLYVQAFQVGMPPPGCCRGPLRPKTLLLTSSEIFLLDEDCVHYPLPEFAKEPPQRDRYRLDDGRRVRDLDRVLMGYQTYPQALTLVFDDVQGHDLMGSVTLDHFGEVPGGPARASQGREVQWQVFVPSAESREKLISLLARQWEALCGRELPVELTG
UniProt Q15653: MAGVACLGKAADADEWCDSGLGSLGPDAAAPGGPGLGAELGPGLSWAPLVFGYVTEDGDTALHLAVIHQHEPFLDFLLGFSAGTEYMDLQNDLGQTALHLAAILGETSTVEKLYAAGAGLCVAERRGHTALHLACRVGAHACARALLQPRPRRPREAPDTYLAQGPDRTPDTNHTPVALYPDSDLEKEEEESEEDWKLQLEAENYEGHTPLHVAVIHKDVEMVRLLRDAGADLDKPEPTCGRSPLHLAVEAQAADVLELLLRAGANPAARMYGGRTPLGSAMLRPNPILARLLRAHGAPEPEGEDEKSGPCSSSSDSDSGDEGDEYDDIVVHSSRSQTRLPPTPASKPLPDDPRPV
UniProt P08651, whole entry, looked up: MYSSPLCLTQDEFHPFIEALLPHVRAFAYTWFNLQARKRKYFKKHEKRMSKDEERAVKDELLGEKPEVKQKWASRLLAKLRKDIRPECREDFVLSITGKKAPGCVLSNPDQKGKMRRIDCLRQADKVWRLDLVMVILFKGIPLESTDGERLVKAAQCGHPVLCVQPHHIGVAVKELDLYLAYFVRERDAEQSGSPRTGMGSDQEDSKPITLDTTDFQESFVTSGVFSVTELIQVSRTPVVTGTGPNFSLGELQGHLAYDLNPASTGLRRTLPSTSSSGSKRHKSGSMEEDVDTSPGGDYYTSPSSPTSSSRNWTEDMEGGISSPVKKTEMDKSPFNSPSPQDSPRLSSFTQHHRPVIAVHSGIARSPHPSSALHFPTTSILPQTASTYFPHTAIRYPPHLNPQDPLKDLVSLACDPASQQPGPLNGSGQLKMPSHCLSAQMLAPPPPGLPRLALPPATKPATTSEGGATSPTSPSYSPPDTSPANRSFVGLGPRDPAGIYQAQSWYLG
UniProt Q9P032: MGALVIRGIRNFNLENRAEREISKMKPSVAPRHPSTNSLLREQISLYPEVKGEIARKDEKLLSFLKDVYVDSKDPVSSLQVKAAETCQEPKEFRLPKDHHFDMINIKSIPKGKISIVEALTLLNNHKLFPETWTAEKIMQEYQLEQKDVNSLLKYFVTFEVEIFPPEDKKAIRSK
UniProt O00217, whole entry, looked up: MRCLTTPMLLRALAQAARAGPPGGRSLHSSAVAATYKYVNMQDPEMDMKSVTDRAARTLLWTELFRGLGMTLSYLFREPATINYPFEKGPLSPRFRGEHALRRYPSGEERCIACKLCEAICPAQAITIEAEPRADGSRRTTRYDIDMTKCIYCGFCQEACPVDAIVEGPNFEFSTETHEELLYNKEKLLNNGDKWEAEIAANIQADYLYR
UniProt Q8N183: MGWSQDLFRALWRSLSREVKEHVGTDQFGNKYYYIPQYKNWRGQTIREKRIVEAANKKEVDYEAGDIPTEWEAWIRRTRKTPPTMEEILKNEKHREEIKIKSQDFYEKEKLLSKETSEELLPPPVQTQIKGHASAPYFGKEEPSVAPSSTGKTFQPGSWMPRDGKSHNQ
UniProt O43678, whole entry, looked up: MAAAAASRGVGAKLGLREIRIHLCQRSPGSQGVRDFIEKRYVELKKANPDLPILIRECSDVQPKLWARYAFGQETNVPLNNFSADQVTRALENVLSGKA
UniProt O95168, whole entry, looked up: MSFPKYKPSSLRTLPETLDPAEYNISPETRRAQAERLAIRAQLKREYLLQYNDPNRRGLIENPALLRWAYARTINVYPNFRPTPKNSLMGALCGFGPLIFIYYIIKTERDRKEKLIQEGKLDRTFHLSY
UniProt Q86Y39, whole entry, looked up: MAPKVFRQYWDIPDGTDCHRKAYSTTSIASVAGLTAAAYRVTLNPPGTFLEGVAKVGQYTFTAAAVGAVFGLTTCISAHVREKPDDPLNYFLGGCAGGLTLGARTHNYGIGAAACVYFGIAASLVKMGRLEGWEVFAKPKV
UniProt Q96IV0: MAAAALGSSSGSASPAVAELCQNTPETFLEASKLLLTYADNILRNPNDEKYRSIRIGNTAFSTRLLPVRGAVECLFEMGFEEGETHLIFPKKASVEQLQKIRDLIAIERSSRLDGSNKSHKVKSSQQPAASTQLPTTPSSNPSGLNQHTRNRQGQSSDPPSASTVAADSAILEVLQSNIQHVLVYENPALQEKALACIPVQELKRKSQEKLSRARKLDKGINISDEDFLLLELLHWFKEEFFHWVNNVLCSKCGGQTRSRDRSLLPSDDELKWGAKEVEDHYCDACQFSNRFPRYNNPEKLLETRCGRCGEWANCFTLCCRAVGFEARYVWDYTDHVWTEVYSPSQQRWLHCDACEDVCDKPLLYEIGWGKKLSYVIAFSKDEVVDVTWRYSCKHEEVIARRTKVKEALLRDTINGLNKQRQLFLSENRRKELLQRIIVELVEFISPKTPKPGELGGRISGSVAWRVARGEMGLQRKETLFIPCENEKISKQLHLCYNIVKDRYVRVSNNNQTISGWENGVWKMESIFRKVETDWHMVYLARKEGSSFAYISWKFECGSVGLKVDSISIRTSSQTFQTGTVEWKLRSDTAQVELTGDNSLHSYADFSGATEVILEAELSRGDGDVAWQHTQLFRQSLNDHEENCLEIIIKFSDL
UniProt P18615, whole entry, looked up: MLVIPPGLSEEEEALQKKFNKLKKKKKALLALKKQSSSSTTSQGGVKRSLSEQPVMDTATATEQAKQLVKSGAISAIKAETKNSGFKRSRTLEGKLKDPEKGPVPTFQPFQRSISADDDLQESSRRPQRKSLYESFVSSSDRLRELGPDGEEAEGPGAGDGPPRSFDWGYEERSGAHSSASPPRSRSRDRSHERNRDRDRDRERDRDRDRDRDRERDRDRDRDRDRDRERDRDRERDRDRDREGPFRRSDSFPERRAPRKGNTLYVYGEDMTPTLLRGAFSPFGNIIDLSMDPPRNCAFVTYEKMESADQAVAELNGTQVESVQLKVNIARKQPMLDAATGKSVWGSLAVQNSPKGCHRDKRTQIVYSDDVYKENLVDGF
UniProt O75323: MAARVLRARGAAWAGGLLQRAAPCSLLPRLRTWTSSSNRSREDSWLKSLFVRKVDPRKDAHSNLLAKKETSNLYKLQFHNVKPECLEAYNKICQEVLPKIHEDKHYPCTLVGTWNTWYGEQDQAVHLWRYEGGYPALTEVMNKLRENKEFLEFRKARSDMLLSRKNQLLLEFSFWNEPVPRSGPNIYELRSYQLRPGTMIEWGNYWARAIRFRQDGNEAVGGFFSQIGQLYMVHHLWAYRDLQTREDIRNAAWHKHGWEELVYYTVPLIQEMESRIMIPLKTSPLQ
UniProt Q9H9Q4: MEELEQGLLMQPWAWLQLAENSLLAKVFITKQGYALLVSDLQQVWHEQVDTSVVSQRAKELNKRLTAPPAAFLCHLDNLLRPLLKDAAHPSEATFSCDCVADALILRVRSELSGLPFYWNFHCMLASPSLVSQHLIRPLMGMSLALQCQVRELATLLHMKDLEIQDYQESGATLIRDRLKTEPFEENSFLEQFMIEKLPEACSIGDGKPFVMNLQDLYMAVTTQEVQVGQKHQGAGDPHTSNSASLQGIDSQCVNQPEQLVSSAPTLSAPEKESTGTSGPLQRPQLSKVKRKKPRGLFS
UniProt Q5TEU4: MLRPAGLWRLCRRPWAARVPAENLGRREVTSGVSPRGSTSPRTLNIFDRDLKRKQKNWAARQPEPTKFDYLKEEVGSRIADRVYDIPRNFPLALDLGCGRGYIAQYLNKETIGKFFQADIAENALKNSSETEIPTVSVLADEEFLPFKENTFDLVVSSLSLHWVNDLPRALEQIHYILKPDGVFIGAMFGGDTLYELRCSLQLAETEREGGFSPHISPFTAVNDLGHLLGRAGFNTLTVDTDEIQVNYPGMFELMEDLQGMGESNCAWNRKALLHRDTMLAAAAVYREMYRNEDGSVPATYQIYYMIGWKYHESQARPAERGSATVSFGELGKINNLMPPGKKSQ
UniProt P51957: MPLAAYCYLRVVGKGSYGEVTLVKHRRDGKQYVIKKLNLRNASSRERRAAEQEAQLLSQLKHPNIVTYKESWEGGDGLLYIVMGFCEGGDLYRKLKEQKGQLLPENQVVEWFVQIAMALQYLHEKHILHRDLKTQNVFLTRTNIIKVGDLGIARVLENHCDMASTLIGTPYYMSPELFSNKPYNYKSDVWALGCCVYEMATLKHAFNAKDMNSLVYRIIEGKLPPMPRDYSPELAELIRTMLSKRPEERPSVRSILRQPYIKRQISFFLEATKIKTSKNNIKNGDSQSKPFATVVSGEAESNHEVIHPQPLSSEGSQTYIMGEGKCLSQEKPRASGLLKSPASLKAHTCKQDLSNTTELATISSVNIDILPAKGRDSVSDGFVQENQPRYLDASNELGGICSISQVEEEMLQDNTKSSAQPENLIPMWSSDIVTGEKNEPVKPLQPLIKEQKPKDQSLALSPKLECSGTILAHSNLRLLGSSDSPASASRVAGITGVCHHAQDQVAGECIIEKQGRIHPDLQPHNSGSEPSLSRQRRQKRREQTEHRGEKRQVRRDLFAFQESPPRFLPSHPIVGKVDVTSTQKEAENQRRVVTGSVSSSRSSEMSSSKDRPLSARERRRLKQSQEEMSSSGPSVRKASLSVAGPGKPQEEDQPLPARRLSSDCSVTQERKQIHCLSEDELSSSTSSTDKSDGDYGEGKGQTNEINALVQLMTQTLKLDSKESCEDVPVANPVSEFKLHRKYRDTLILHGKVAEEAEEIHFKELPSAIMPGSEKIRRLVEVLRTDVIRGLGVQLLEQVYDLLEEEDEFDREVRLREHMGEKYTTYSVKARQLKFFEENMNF

Assays:
Assay in all cases: log2 fold change, soluble protein after heating vs DMSO (PISA); higher = thermal stabilisation; K562 lysate, 10 uM; active = over 0.2 and 3.5 SD of the protein, either way, in both replicates (recomputed)
[1] = compound: C1=CC=C(C=C1)[C@H](COC2=CC3=C(C=C2)NC(=O)N3)NC(=O)C4=CC=CN(C4=O)CC5=CC(=C(C=C5)F)F
Summary of the method: (§1)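 K562 pellets were dounce-homogenised in PBS pH 7.4 with 1 mM MgCl2, and the crude extract at 1 mg/mL protein was treated with 10 μM compound for 30 min. Aliquots were heated for 3 min across 48°C-58°C, pooled, and brought to 0.5% NP-40 at 4°C; soluble protein was the supernatant after 21,000xg for 90 min. Soluble protein was quantified by TMTpro 16plex LC-MS/MS with channel sums equalised, and reported as log2 fold change in thermal stability against DMSO controls, with values from duplicates.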

[2] = compound: CC1=C(SC2=C1C(=N[C@H](C3=NN=C(N32)C)CC(=O)N)C4=CC=C(C=C4)Cl)C
Summary of the method: as §1

[3] = compound: CC1=C2C(=CC=C1)N=C(N(C2=O)C3=CC=CC=C3C)CN4C=NC5=C(N=CN=C54)N
Summary of the method: as §1

[4] = compound: Cc1sc2c(c1C)C(c1ccc(Cl)cc1)=N[C@@H](CC(=O)OC(C)(C)C)c1nnc(C)n1-2
Summary of the method: as §1

[5] = compound: c1ccc([C@@H]2C[C@H]2NC2CCNCC2)cc1
Summary of the method: as §1

Measured: log2 fold change

NDRG2 (UniProt Q9UN36)
inactive: [1] 0.029 | [2] -0.028 | [3] -0.003 | [4] -0.02 | [5] 0.002

NENF (UniProt Q9UMX5)
inactive: [1] 0.009 | [2] -0.056 | [3] -0.001 | [4] -0.033 | [5] 0.037

NGRN (UniProt Q9NPE2)
inactive: [1] -0.036 | [2] 0.049 | [3] 0.039 | [4] -0.069 | [5] 0.09

NDUFB8 (UniProt O95169)
inactive: [1] -0.011 | [2] -0.046 | [3] 0.022 | [4] -0.015 | [5] 0.04

NFKBIE (UniProt O00221)
inactive: [1] -0.014 | [2] -0.068 | [3] 0.033 | [4] 0.081 | [5] -0.087

NFATC2IP (UniProt Q8NCF5)
inactive: [1] 0.012 | [2] -0.01 | [3] 0.009 | [4] 0.138 | [5] 0.049

NLN (UniProt Q9BYT8)
inactive: [1] 0.003 | [2] 0.002 | [3] 0.018 | [4] -0.011 | [5] 0.067

NDUFA13 (UniProt Q9P0J0)
inactive: [1] -0.022 | [2] 0.036 | [3] 0.01 | [4] -0.003 | [5] 0.064

NIT1 (UniProt Q86X76)
inactive: [1] -0.022 | [2] 0.004 | [3] 0.012 | [4] 0.034 | [5] -0.074

NEMF (UniProt O60524)
inactive: [1] 0.036 | [2] 0.013 | [3] -0.024 | [4] -0.014 | [5] 0.04

NEK7 (UniProt Q8TDX7)
inactive: [1] 0.03 | [2] -0.032 | [3] -0.004 | [4] -0.076 | [5] 0.026

NISCH (UniProt Q9Y2I1)
inactive: [1] -0.011 | [2] 0.024 | [3] 0.003 | [4] 0.017 | [5] 0.083

NDUFAB1 (UniProt O14561)
inactive: [1] 0.063 | [2] -0.052 | [3] -0.108 | [4] 0.007 | [5] -0.033

NFKBIB (UniProt Q15653)
inactive: [1] 0.068 | [2] 0 | [3] 0.014 | [4] 0.055 | [5] -0.185

NIFK (UniProt Q9BYG3)
inactive: [1] 0.065 | [2] 0.07 | [3] 0.015 | [4] 0.056 | [5] 0.047

NDOR1 isoform 2 (UniProt Q9UHB4)
inactive: [1] -0.109 | [2] 0.082 | [3] 0.061 | [4] -0.021 | [5] -0.062

NFIC (UniProt P08651)
inactive: [1] 0.023 | [2] 0.018 | [3] -0.056 | [4] 0.052 | [5] -0.177

NDUFAF4 (UniProt Q9P032)
inactive: [1] -0.094 | [2] -0.001 | [3] 0.002 | [4] -0.008 | [5] 0.042

NDUFS8 (UniProt O00217)
inactive: [1] -0.018 | [2] -0.016 | [3] 0.058 | [4] 0.02 | [5] 0.064

NDUFAF2 (UniProt Q8N183)
inactive: [1] -0.035 | [2] 0.029 | [3] 0.002 | [4] -0.038 | [5] -0.112

NDUFA2 (UniProt O43678)
inactive: [1] 0.008 | [2] -0.026 | [3] 0.04 | [4] -0.014 | [5] 0.038

10 successive records already listed, quoted:
NISCH (UniProt Q9Y2I1)
inactive: [1] -0.011 | [2] 0.024 | [3] 0.003 | [4] 0.017 | [5] 0.083

NDUFAB1 (UniProt O14561)
inactive: [1] 0.063 | [2] -0.052 | [3] -0.108 | [4] 0.007 | [5] -0.033

NFKBIB (UniProt Q15653)
inactive: [1] 0.068 | [2] 0 | [3] 0.014 | [4] 0.055 | [5] -0.185

NIFK (UniProt Q9BYG3)
inactive: [1] 0.065 | [2] 0.07 | [3] 0.015 | [4] 0.056 | [5] 0.047

NDOR1 isoform 2 (UniProt Q9UHB4)
inactive: [1] -0.109 | [2] 0.082 | [3] 0.061 | [4] -0.021 | [5] -0.062

NFIC (UniProt P08651)
inactive: [1] 0.023 | [2] 0.018 | [3] -0.056 | [4] 0.052 | [5] -0.177

NDUFAF4 (UniProt Q9P032)
inactive: [1] -0.094 | [2] -0.001 | [3] 0.002 | [4] -0.008 | [5] 0.042

NDUFS8 (UniProt O00217)
inactive: [1] -0.018 | [2] -0.016 | [3] 0.058 | [4] 0.02 | [5] 0.064

NDUFAF2 (UniProt Q8N183)
inactive: [1] -0.035 | [2] 0.029 | [3] 0.002 | [4] -0.038 | [5] -0.112

NDUFA2 (UniProt O43678)
inactive: [1] 0.008 | [2] -0.026 | [3] 0.04 | [4] -0.014 | [5] 0.038

More entries.

NDUFAF1 (UniProt Q9Y375)
inactive: [1] 0.04 | [2] -0.041 | [3] -0.016 | [4] -0.065 | [5] 0.049

NIPSNAP1 (UniProt Q9BPW8)
inactive: [1] 0.01 | [2] 0.012 | [3] 0.029 | [4] 0.043 | [5] 0.08

NDUFB4 (UniProt O95168)
inactive: [1] -0.011 | [2] 0.029 | [3] 0.011 | [4] 0.019 | [5] 0.118

NDUFA11 (UniProt Q86Y39)
inactive: [1] -0.002 | [2] -0.033 | [3] -0.013 | [4] 0.016 | [5] -0.086

NFATC1 (UniProt O95644)
inactive: [1] -0.006 | [2] 0.047 | [3] -0.017 | [4] 0.003 | [5] -0.127

NDUFA8 (UniProt P51970)
inactive: [1] -0.023 | [2] -0.002 | [3] -0.003 | [4] 0.056 | [5] 0.1

NECAP1 (UniProt Q8NC96)
inactive: [1] 0.034 | [2] 0.041 | [3] 0.006 | [4] 0.015 | [5] -0.031

NF2 (UniProt P35240)
inactive: [1] 0.069 | [2] 0.011 | [3] -0.04 | [4] 0.015 | [5] -0.016

NDEL1 isoform 2 (UniProt Q9GZM8)
inactive: [1] 0.043 | [2] 0.03 | [3] -0.027 | [4] -0.003 | [5] 0.011

NGLY1 (UniProt Q96IV0)
inactive: [1] -0.011 | [2] 0.002 | [3] 0.016 | [4] -0.018 | [5] -0.07

NELFE (UniProt P18615)
inactive: [1] 0.009 | [2] -0.006 | [3] 0.03 | [4] 0.009 | [5] -0.037

NFS1 (UniProt Q9Y697)
inactive: [1] 0.03 | [2] 0.001 | [3] 0.013 | [4] -0.029 | [5] -0.025

NIPSNAP2 (UniProt O75323)
inactive: [1] 0.057 | [2] -0.023 | [3] 0.069 | [4] -0.034 | [5] 0.048

NHEJ1 (UniProt Q9H9Q4)
inactive: [1] 0.028 | [2] -0.016 | [3] -0.075 | [4] -0.062 | [5] 0.092

NFIA isoform 4 (UniProt Q12857)
inactive: [1] 0 | [2] 0.07 | [3] -0.004 | [4] -0.008 | [5] -0.041

NDUFB7 (UniProt P17568)
inactive: [1] 0.014 | [2] 0.037 | [3] 0.007 | [4] -0.043 | [5] 0.025

NFYA (UniProt P23511)
inactive: [1] 0.153 | [2] -0.024 | [3] 0.09 | [4] 0.1 | [5] -0.035

NDUFB10 (UniProt O96000)
inactive: [1] -0.001 | [2] 0.023 | [3] 0.011 | [4] 0.007 | [5] 0.047

NEDD4L (UniProt Q96PU5)
inactive: [1] 0.018 | [2] 0.018 | [3] -0.008 | [4] 0.049 | [5] 0.041

NDUFB6 (UniProt O95139)
inactive: [1] 0.034 | [2] -0.061 | [3] 0.009 | [4] -0.04 | [5] -0.077

NES (UniProt P48681)
inactive: [1] 0.05 | [2] 0.04 | [3] -0.002 | [4] -0.021 | [5] 0.03

NEU1 (UniProt Q99519)
inactive: [1] 0.022 | [2] -0.016 | [3] 0.129 | [4] 0.059 | [5] 0.073

NDUFAF5 (UniProt Q5TEU4)
inactive: [1] 0.078 | [2] 0.016 | [3] 0.026 | [4] -0.174 | [5] 0.004

NDRG2 isoform 6 (UniProt Q9UN36)
inactive: [3] 0.007 | [4] 0.017

NEK4 (UniProt P51957)
inactive: [3] 0.128

NEPRO (UniProt Q6NW34)
inactive: [1] -0.032 | [2] 0.16 | [4] 0.057 | [5] -0.068
